US4272437A, “Antibacterial agents, and 4-thio azetidinone intermediates” (priority 1979, dated 1981)
At least one compound was matched to its structure with a doubt left.

Assay: stability in aqueous solution followed by UV
Type: physicochemical
Experimental: To a solution of penem 3 (2.4 g, 6.89 mmoles) in tetrahydrofuran-ether-water mixture (1:1:1, 165 ml) was added 30% palladium on diatomaceous earth (4.8 g). The reaction mixture was hydrogenated under 45 p.s.i. at 23° C. for 2.5 h and filtered over celite pad. The filtrate and washings were combined, washed twice with ether, centrifugated and filtered several times to give a clear solution which was lyophilized; 0.622 g, 45%. The crystallization of the compound was induced by the addition of water (0.8 ml); the suspension was centrifuged and the water was removed leaving an orange solid. This solid was washed twice with water and a slightly yellow solid was obtained after drying: […], 19.8%. UV λmax^H.sbsp.2^O : 307 (ε=4318) and 257 (ε=2650). Some crude starting material (1.2 g, 50%) was recovered. The compound (50 mg) can also be purified by column chromatography [Sephadex G10, column size: 1.6×100 cm, flow rate: 10 ml/h, eluent: distilled water, fraction volume: 1.5 ml, detector: refractive index]. UV λmax^H.sbsp.2^O 307 (ε=3597) and 255 (ε=2424).
The stability of the compound in aqueous solution was checked by:
A sample of compound 4 was kept at 23° C. for 3 days and the UV was taken: UV λmax^H.sbsp.2^O : 307 (ε=3055) and 255 (ε=2008). […]

## N[C@H]1C[C@H](C2=C(C(=O)O)N3C(=O)C[C@H]3S2)C1 [Example 75, 2-(trans 3-Aminocyclobutyl)-penem-3-carboxylic Acid]
  time found to be stable in solution in water: more than 5 days
